Earlier results in patent US7598029B2, “Method for identifying HIV-1 protease inhibitors with reduced metabolic affects” (Bristol-Myers Squibb Company, priority 2006, dated 2009).
For at least one compound, name, drawing or mass did not settle the structure.

System: resistin
Conditions: Steppan et al., Nature 409:307-12 (2001); cited from earlier work

| SMILES | expression of resistin |
| --- | --- |
| CN(CCOc1ccc(CC2SC(=O)NC2=O)cc1)c1ccccn1 (centres unmarked) [rosiglitazone] | known to inhibit expression of resistin |
| CCc1ccc(CCOc2ccc(CC3SC(=O)NC3=O)cc2)nc1 (centres unmarked) [pioglitazone] | known to inhibit expression of resistin |
